# Test results as given in PMC8384837.
# Changes are numbered by the printed parent chain. Some of the results follow. For some assays here: At the low end of the ranking the order means little.
# Legend:
# Conditions in all cases: yeast three-hybrid, YBZ-1, SC-Leu-His + 0.5 mM 3-AT, 4 days
# [1] = biological target: T1, PUM1 PUF domain R4-PRQ N971P + H972R (UniProt Q14671)
# T1 sequence: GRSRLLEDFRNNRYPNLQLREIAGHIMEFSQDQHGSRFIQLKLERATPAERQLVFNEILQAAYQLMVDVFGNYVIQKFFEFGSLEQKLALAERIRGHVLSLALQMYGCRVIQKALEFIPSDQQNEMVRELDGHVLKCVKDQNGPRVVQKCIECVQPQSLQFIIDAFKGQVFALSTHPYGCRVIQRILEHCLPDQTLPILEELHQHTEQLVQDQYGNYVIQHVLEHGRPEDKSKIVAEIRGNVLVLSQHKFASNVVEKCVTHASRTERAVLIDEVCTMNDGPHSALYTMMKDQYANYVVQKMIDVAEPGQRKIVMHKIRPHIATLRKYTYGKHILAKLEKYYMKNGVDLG
# [2] = biological target: T2, PUM1 PUF domain R4-PTC N971P + H972T + Q975C (UniProt Q14671)
# T2 sequence: T1 sequence with R145T, Q148C
# [3] = biological target: T3, PUM1 PUF domain R4-PWG N971P + H972W + Q975G (UniProt Q14671)
# T3 sequence: T1 sequence with R145W, Q148G
# [4] = biological target: T4, PUM1 PUF domain R4-PWR N971P + H972W + Q975R (UniProt Q14671)
# T4 sequence: T1 sequence with R145W, Q148R
# [5] = biological target: T5, PUM1 PUF domain R4-PWS N971P + H972W + Q975S (UniProt Q14671)
# T5 sequence: T1 sequence with R145W, Q148S
# [6] = biological target: T6, PUM1 PUF domain R4-PYA N971P + H972Y + Q975A (UniProt Q14671)
# T6 sequence: T1 sequence with R145Y, Q148A
# [7] = biological target: T7, PUM1 PUF domain R4-PYE N971P + H972Y + Q975E (Homo sapiens) (UniProt Q14671)
# T7 sequence: T1 sequence with R145Y, Q148E
# [8] = biological target: T8, PUM1 PUF domain R4-PYG N971P + H972Y + Q975G (Homo sapiens) (UniProt Q14671)
# T8 sequence: T1 sequence with R145Y, Q148G
# [9] = biological target: T9, PUM1 PUF domain R4-PYR N971P + H972Y + Q975R (UniProt Q14671)
# T9 sequence: T1 sequence with R145Y, Q148R
# [10] = biological target: T10, PUM1 PUF domain R4-PYS N971P + H972Y + Q975S (Homo sapiens) (UniProt Q14671)
# T10 sequence: T1 sequence with R145Y, Q148S
# [11] = biological target: T11, PUM1 PUF domain R4-QGA N971Q + H972G + Q975A (UniProt Q14671)
# T11 sequence: T1 sequence with P144Q, R145G, Q148A
# [12] = biological target: T12, PUM1 PUF domain R4-QGG N971Q + H972G + Q975G (UniProt Q14671)
# T12 sequence: T1 sequence with P144Q, R145G, Q148G
# [13] = biological target: T13, PUM1 PUF domain R4-QHR N971Q + Q975R (UniProt Q14671)
# T13 sequence: T1 sequence with P144Q, R145H, Q148R
# [14] = biological target: T14, PUM1 PUF domain R4-QPG N971Q + H972P + Q975G (UniProt Q14671)
# T14 sequence: T1 sequence with P144Q, R145P, Q148G
# [15] = biological target: T15, PUM1 PUF domain R4-QPS N971Q + H972P + Q975S (UniProt Q14671)
# T15 sequence: T1 sequence with P144Q, R145P, Q148S
# [16] = biological target: T16, PUM1 PUF domain R4-QRG N971Q + H972R + Q975G (Homo sapiens) (UniProt Q14671)
# T16 sequence: T1 sequence with P144Q, Q148G
# [17] = biological target: T17, PUM1 PUF domain R4-RCG N971R + H972C + Q975G (UniProt Q14671)
# T17 sequence: T1 sequence with P144R, R145C, Q148G
# [18] = biological target: T18, PUM1 PUF domain R4-RGG N971R + H972G + Q975G (Homo sapiens) (UniProt Q14671)
# T18 sequence: T1 sequence with P144R, R145G, Q148G
# [19] = biological target: T19, PUM1 PUF domain R4-RGY N971R + H972G + Q975Y (UniProt Q14671)
# T19 sequence: T1 sequence with P144R, R145G, Q148Y
# [20] = biological target: T20, PUM1 PUF domain R4-RHA N971R + Q975A (UniProt Q14671)
# T20 sequence: T1 sequence with P144R, R145H, Q148A
# [21] = biological target: T21, PUM1 PUF domain R4-RHG N971R + Q975G (Homo sapiens) (UniProt Q14671)
# T21 sequence: T1 sequence with P144R, R145H, Q148G
# [22] = biological target: T22, PUM1 PUF domain R4-RHL N971R + Q975L (UniProt Q14671)
# T22 sequence: T1 sequence with P144R, R145H, Q148L
# [23] = biological target: T23, PUM1 PUF domain R4-RHS N971R + Q975S (UniProt Q14671)
# T23 sequence: T1 sequence with P144R, R145H, Q148S
# [24] = biological target: T24, PUM1 PUF domain R4-RIF N971R + H972I + Q975F (UniProt Q14671)
# T24 sequence: T1 sequence with P144R, R145I, Q148F
# [25] = biological target: T25, PUM1 PUF domain R4-RLF N971R + H972L + Q975F (UniProt Q14671)
# T25 sequence: T1 sequence with P144R, R145L, Q148F
# [26] = biological target: T26, PUM1 PUF domain R4-RMA N971R + H972M + Q975A (UniProt Q14671)
# T26 sequence: T1 sequence with P144R, R145M, Q148A
# [27] = biological target: T27, PUM1 PUF domain R4-RMG N971R + H972M + Q975G (Homo sapiens) (UniProt Q14671)
# T27 sequence: T1 sequence with P144R, R145M, Q148G
# [28] = biological target: T28, PUM1 PUF domain R4-RMR N971R + H972M + Q975R (UniProt Q14671)
# T28 sequence: T1 sequence with P144R, R145M, Q148R
# [29] = biological target: T29, PUM1 PUF domain R4-RMS N971R + H972M + Q975S (UniProt Q14671)
# T29 sequence: T1 sequence with P144R, R145M, Q148S
# [30] = biological target: T30, PUM1 PUF domain R4-RRY N971R + H972R + Q975Y (UniProt Q14671)
# T30 sequence: T1 sequence with P144R, Q148Y
# [31] = biological target: T31, PUM1 PUF domain R4-RVY N971R + H972V + Q975Y (UniProt Q14671)
# T31 sequence: T1 sequence with P144R, R145V, Q148Y
# [32] = biological target: T32, PUM1 PUF domain R4-RYP N971R + H972Y + Q975P (UniProt Q14671)
# T32 sequence: T1 sequence with P144R, R145Y, Q148P
# [33] = biological target: T33, PUM1 PUF domain R4-SCS N971S + H972C + Q975S (UniProt Q14671)
# T33 sequence: T1 sequence with P144S, R145C, Q148S
# [34] = biological target: T34, PUM1 PUF domain R4-SFP N971S + H972F + Q975P (UniProt Q14671)
# T34 sequence: T1 sequence with P144S, R145F, Q148P
# [35] = biological target: T35, PUM1 PUF domain R4-SIG N971S + H972I + Q975G (UniProt Q14671)
# T35 sequence: T1 sequence with P144S, R145I, Q148G
# [36] = biological target: T36, PUM1 PUF domain R4-SLS N971S + H972L + Q975S (UniProt Q14671)
# T36 sequence: T1 sequence with P144S, R145L, Q148S
# [37] = biological target: T37, PUM1 PUF domain R4-SLY N971S + H972L + Q975Y (UniProt Q14671)
# T37 sequence: T1 sequence with P144S, R145L, Q148Y
# [38] = biological target: T38, PUM1 PUF domain R4-SMC N971S + H972M + Q975C (UniProt Q14671)
# T38 sequence: T1 sequence with P144S, R145M, Q148C
sequence,measurement,setting,value
GGCUAGAACUAGUGGAUCCCCCGGCGCCCGGCGGCUCGAGCCCGGGUAAGUGUAGAUAGUCUGCAUGCCGCCGGGCGCCAUGCCUGCAGGUCGACUCUAGAAAACAUG,binding signal (log2 enrichment (interaction score)),[1],< -6.73
same,binding signal (log2 enrichment (interaction score)),[2],< -7.06
same,binding signal (log2 enrichment (interaction score)),[3],< -6.4
same,binding signal (log2 enrichment (interaction score)),[4],< -7.76
same,binding signal (log2 enrichment (interaction score)),[5],< -6.26
same,binding signal (log2 enrichment (interaction score)),[6],< -5.84
same,binding signal (log2 enrichment (interaction score)),[7],< -5.04
same,binding signal (log2 enrichment (interaction score)),[8],-4.48
same,binding signal (log2 enrichment (interaction score)),[9],< -7.36
same,binding signal (log2 enrichment (interaction score)),[10],-2.67
same,binding signal (log2 enrichment (interaction score)),[11],< -6.13
same,binding signal (log2 enrichment (interaction score)),[12],< -6.79
same,binding signal (log2 enrichment (interaction score)),[13],-3.39
same,binding signal (log2 enrichment (interaction score)),[14],< -7.73
same,binding signal (log2 enrichment (interaction score)),[15],< -6.88
same,binding signal (log2 enrichment (interaction score)),[16],-2
same,binding signal (log2 enrichment (interaction score)),[17],< -8.07
same,binding signal (log2 enrichment (interaction score)),[18],-3.56
same,binding signal (log2 enrichment (interaction score)),[19],< -6.1
same,binding signal (log2 enrichment (interaction score)),[20],< -5.33
same,binding signal (log2 enrichment (interaction score)),[21],-0.93
same,binding signal (log2 enrichment (interaction score)),[22],< -5.82
same,binding signal (log2 enrichment (interaction score)),[23],< -5.41
same,binding signal (log2 enrichment (interaction score)),[24],< -4.83
same,binding signal (log2 enrichment (interaction score)),[25],< -5.56
same,binding signal (log2 enrichment (interaction score)),[26],< -7.3
same,binding signal (log2 enrichment (interaction score)),[27],-4.45
same,binding signal (log2 enrichment (interaction score)),[28],< -7.68
same,binding signal (log2 enrichment (interaction score)),[29],< -5.61
same,binding signal (log2 enrichment (interaction score)),[30],< -5.66
same,binding signal (log2 enrichment (interaction score)),[31],< -6.39
same,binding signal (log2 enrichment (interaction score)),[32],< -6.55
same,binding signal (log2 enrichment (interaction score)),[33],< -7.99
same,binding signal (log2 enrichment (interaction score)),[34],< -6.53
same,binding signal (log2 enrichment (interaction score)),[35],< -8.59
same,binding signal (log2 enrichment (interaction score)),[36],< -8.38
same,binding signal (log2 enrichment (interaction score)),[37],< -8.31
same,binding signal (log2 enrichment (interaction score)),[38],< -6.62

# Exported with tabs: entries from further up.
sequence	measurement	setting	value
GGCUAGAACUAGUGGAUCCCCCGGCGCCCGGCGGCUCGAGCCCGGGUAAGUGUAGAUAGUCUGCAUGCCGCCGGGCGCCAUGCCUGCAGGUCGACUCUAGAAAACAUG	binding signal (log2 enrichment (interaction score))	[35]	< -8.59
same	binding signal (log2 enrichment (interaction score))	[36]	< -8.38
same	binding signal (log2 enrichment (interaction score))	[37]	< -8.31
